Laboratory results: ChEMBL document CHEMBL3797054, “Discovery of a series of 8-(2,3-dihydro-1,4-benzoxazin-4-ylmethyl)-2-morpholino-4-oxo-chromene-6-carboxamides as PI3Kβ/δ inhibitors for the treatment of PTEN-deficient tumours” (Bioorg Med Chem Lett, 2016)

Assay: physchem
Conditions: buffer, pH 7.4

Row | SMILES | logD
1 | C[C@@H]1CN(c2cc(=O)c3cc(C(=O)N4CCOCC4)cc(CN4CCOc5c(F)cccc54)c3o2)CCO1 | 1.8
2 | C[C@@H]1CN(c2cc(=O)c3cc(C(=O)N4CCOCC4)cc(CN4CCOc5c(F)cc(F)cc54)c3o2)CCO1 | 2.1
